# Results reported in paper PMC7343241.
# By UniProt entry, the sequences of proteins in these tests, tags left out. Where a name states a change or a piece, a line headed by the entry shows the natural chain unless it says otherwise.
# UniProt Q93640: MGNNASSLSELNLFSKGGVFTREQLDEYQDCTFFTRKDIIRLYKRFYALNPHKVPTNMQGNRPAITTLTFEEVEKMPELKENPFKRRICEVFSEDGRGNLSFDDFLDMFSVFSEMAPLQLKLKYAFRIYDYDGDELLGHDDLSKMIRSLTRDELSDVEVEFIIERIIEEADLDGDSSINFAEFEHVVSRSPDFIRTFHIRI
# No constants are given. Whether binding was seen depends on the method and setting. Binding seen in cells or lysates may run through a third protein. Here binding means that the protein was enriched with, or labelled near, the bait; the list need not be complete.
# B1: TMC-2 (endogenous, worm lysate) (protein, UniProt Q11069 1-1203)
# chain: MPKSGAHQPLVRHDTDDGGETGQSVKSLADVSEEEIDSRMSRRSSVIADLLSLFRRSSSVLVRPHTRLGNPNFDDDDDEFDEEDDKEASKDRILKKIQQKKEIIQKLRGQPWYMKRKRRTLKVAQKHLQQQEAKVSKARLYKAEAGRRLTQASRWLDNLKIYLIPWEAKIRKIESHFGSVVSSYFTFHRWVLGVNITITFIMCMFVVIPEWLADSRTQFGDDRYNKTKAIKVMPPAVRARADELSTVWDFGGYFQYSLLFYGFYSKETFFGETIKYRVPVAYFFCNIFILGFSLFIILRKMAANNRRGTLSSGKTQQYLFNWKAFTGWDYTIGNPETAGNVYMANVIKFREAINDDKQKPSDKHPWIRFVARVLTNLFICAMYVFSIWAIMQCGTLKGEHFFAQNATAITISLITLVFPNIFDLLGKIEKLHPRNALRFQLGRVLVLYILNYYTLIYSLMLQLEHLQKEKNASDNPISALGHPGDAIGRTIRETVLPRYPVDNNPHTYYSYAPVTTTPIPATSSWTTVLPDFGPFGVYNPKASVTKDDTVFSSPVVETHMFGPNSDWNETTVNAASPTGATTRASLRMSQGGLCWETIIGQEITKLVTMDLYMTVASIFLIDFLRGLACRYLNLYWPWDLERTFPEYGEFKVAENVLHLVNNQGMIWLGLFFVPLLPMLNNIKLIILMYIRGWAAMTCNVPASQIFRASRSSNFFFALLILFLFLCTLPVGFVIASKTPSKSCGPFGNQSFFYSVITDVLHENLDKTLVNGIKYSLSPGIIIPVLVLLSLVIYFLIAMVTGLSQANQDLSFQLMVERTEEKKKIFELAGGKKKKSKDNTFGKQKPKQLLPPPTKGVSSDDDSQHNRSTAKSVSGRQFVPSLGSVSEVDHSTGEEQSSDSESTTSSLPPKLSLRQRFLVCIGWADPNKYGRHDDIEMEEGGGRLRELSTGSETDSDDEDSEKSNRDMSYRTAIQSFDQNSQSASASSSKSTTTAPSNSEMRIEITENPLHTYITPLRIEKKSSASSSSSSHQPSSSIEKQAARRLLQPISTTHNIRYGVATVENSSQDPTRPPSTDDSLGDPALHEPLWANLNPHSSYTSAMMSPIMNEVMSNDETTDDEKGRLIPDRPPIPHSPRELKRLKREKDQQSESGSKPSTPRPPRFRISMSPPRKPPSEKNDSDSSNRKYEMRVEKSPKKPKKSDND
# Columns and labels:
# [1] = molecular target: CALM-1::FLAG (transgenic worms) (C. elegans); test: affinity purification with mass spectrometry; FLAG-tagged CALM-1 from whole lysates of transgenic worms on anti-FLAG M2 magnetic beads; FLAG::GFP as negative control
# [2] = molecular target: FLAG::CALM-1 (transgenic worms) (C. elegans) (UniProt Q93640); test: as above
binder,measurement,setting,value
B1,binding,[1],binds
same,binding,[2],binds
